PubChem BioAssay AID1259254 – NCATS | 2017

- Purpose: 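Finding genes that stop cells copying their DNA twice in one cycle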 (primary screen)
- System: human HCT116 colorectal cancer cells
- Reagents: single siRNA against human genes
- Duration: 3 days
- Detection: 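Imaged Hoechst DNA stain sorts each cell into a cycle phase by DNA amount; per plate, G2 fraction set to 0% for non-targeting and 100% for GMNN siRNA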
- Direction: G2 robust z-score and G2 cells, % of GMNN control: higher = more G2 cells, more excess DNA replication; raw share of cells in G2: higher = larger share of cells with G2 DNA content
- Rule for the call: 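An siRNA counts as active if its G2 robust z-score lies at least 5 MADs above the screen median; here such calls match roughly 38% of GMNN control or more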
This is one part, drawn at random, of about 59,000 reagents. Of all reagents, about 1,550 (2.6%) were called active. 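G2 share is only a proxy for re-replication; each gene was hit by three separate siRNAs, and active genes were retested.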 The raw values are shown without normalisation. Entries without a mark were called inactive. Reagents against one gene are numbered here. No sequences are given here. Not stated in the record: the amount of reagent.

| gene symbol | reagent | G2 robust z-score | G2 cells, % of GMNN control | raw share of cells in G2 (%) |
| --- | --- | --- | --- | --- |
| NDUFAF2 | 1 | -0.985 | -3.96 | 2.4 |
| NDUFAF2 | 2 | -1.05 | -4.39 | 1.63 |
| NDUFAF2 | 3 | 0.388 | 5.7 | 4.73 |
| OR6C68 | 1 | -0.553 | -0.925 | 3.47 |
| OR6C68 | 2 | 0.0559 | 3.36 | 4.85 |
| OR6C68 | 3 | 0.89 | 9.23 | 8.62 |
| PDE4DIP | 1 | 1.45 | 13.2 | 11.3 |
| PDE4DIP | 2 | 1.85 | 16 | 10.6 |
| PDE4DIP | 3 | 0.441 | 6.07 | 5.61 |
| LOC728114 (retired record) | 1 | 1.26 | 11.8 | 8.02 |
| LOC728114 (retired record) | 2 | 0.313 | 5.17 | 4.7 |
| LOC728114 (retired record) | 3 | 0.167 | 4.14 | 5.17 |
| SRSF5 | 1 | 2.01 | 17.1 | 11.4 |
| SRSF5 | 2 | -0.305 | 0.825 | 4.83 |
| SRSF5 | 3 | 0.102 | 3.68 | 5.18 |
| SKA1 | 1 | 1.45 | 13.2 | 7.4 |
| SKA1 | 2 | 3.62 | 28.4 | 13.9 |
| SKA1 | 3 | 0.0626 | 3.41 | 4.3 |
| GNPTG | 1 | 1.68 | 14.8 | 11.6 |
| GNPTG | 2 | -1.39 | -6.84 | 1.72 |
| GNPTG | 3 | 0.119 | 3.8 | 6.2 |
| UBE2Q1 | 1 | 0.228 | 4.57 | 6.24 |
| UBE2Q1 | 2 | -1.21 | -5.51 | 2.46 |
| UBE2Q1 | 3 | 0.296 | 5.05 | 8.64 |
| LOC646778 (retired record) | 1 | -0.408 | 0.097 | 3.81 |
| LOC646778 (retired record) | 2 | -0.0955 | 2.3 | 4.08 |
| LOC646778 (retired record) | 3 | 3.67 | 28.8 | 12.2 |
| TMEM225 | 1 | -0.0766 | 2.43 | 4.82 |
| TMEM225 | 2 | 0.778 | 8.44 | 6.95 |
| TMEM225 | 3 | 1.4 | 12.8 | 9.36 |
| PCDHB11 | 1 | 0.339 | 5.35 | 6.36 |
| PCDHB11 | 2 | -0.00441 | 2.94 | 5.56 |
| PCDHB11 | 3 | -0.838 | -2.93 | 5.15 |
| MANSC1 | 1 | -1.39 | -6.82 | 1.16 |
| MANSC1 | 2 | -0.48 | -0.411 | 4.1 |
| MANSC1 | 3 | -0.342 | 0.558 | 3.38 |
| CDK11B | 1 | 0.735 | 8.14 | 8.3 |
| CDK11B | 2 | 0.142 | 3.97 | 6.75 |
| CDK11B | 3 | -1.12 | -4.9 | 2.3 |
| IREB2 | 1 | -0.319 | 0.722 | 5.96 |
| IREB2 | 2 | -0.775 | -2.49 | 3.29 |
| IREB2 | 3 | -0.923 | -3.53 | 3.76 |
| OSBPL10 | 1 | 0.522 | 6.64 | 6.99 |
| OSBPL10 | 2 | -0.332 | 0.629 | 5.24 |
| OSBPL10 | 3 | 0.0326 | 3.2 | 7.16 |
| BEST4 | 1 | 1.44 | 13.1 | 10.1 |
| BEST4 | 2 | 0.276 | 4.91 | 6.44 |
| BEST4 | 3 | 0.925 | 9.48 | 8.07 |
| GLRA3 | 1 | -0.0158 | 2.86 | 6.33 |
| GLRA3 | 2 | 1.13 | 10.9 | 8.47 |
| GLRA3 | 3 | 1.13 | 10.9 | 8.65 |
| IL18 | 1 | -0.646 | -1.58 | 2.78 |
| IL18 | 2 | -1.2 | -5.51 | 2.63 |
| IL18 | 3 | -1.04 | -4.34 | 2.51 |
| ZDHHC11 | 1 | 1.56 | 14 | 9.95 |
| ZDHHC11 | 2 | -0.565 | -1.01 | 5.01 |
| ZDHHC11 | 3 | 2.8 | 22.7 | 12.4 |
| TECPR2 | 1 | 2.92 | 23.5 | 16 |
| TECPR2 | 2 | 0.645 | 7.51 | 7.08 |
| TECPR2 | 3 | 0.393 | 5.73 | 5.49 |
| LUZP1 | 1 | -0.387 | 0.244 | 5.24 |
| LUZP1 | 2 | -0.683 | -1.84 | 3.17 |
| LUZP1 | 3 | -0.883 | -3.25 | 2.2 |
| TNFRSF10D | 1 | -0.388 | 0.234 | 5.35 |
| TNFRSF10D | 2 | 0.929 | 9.5 | 8.11 |
| TNFRSF10D | 3 | -0.259 | 1.14 | 5.06 |
| NCR2 | 1 | 0.675 | 7.72 | 8.12 |
| NCR2 | 2 | 0.936 | 9.55 | 8.63 |
| NCR2 | 3 | -0.165 | 1.81 | 3.82 |
| SYCE1 | 1 | -0.198 | 1.58 | 2.28 |
| SYCE1 | 2 | 0.12 | 3.81 | 5.62 |
| SYCE1 | 3 | -0.157 | 1.86 | 3.88 |
| USP6 | 1 | 0.122 | 3.82 | 6.89 |
| USP6 | 2 | -0.623 | -1.42 | 4.41 |
| USP6 | 3 | 0.109 | 3.73 | 5.3 |
| PMEPA1 | 1 | 0.178 | 4.22 | 6.01 |
| PMEPA1 | 2 | 1.12 | 10.9 | 9.64 |
| PMEPA1 | 3 | 0.653 | 7.56 | 5.42 |
| FARS2 | 1 | -0.473 | -0.359 | 6.34 |
| FARS2 | 2 | 1.38 | 12.7 | 7.94 |
| FARS2 | 3 | 2.99 | 24 | 16.1 |
| ANKZF1 | 1 | 1.55 | 13.8 | 9.4 |
| ANKZF1 | 2 | -0.604 | -1.28 | 5.87 |
| ANKZF1 | 3 | 0.768 | 8.37 | 7.82 |
| MEX3A | 1 | -0.087 | 2.36 | 5.37 |
| MEX3A | 2 | 2.91 | 23.4 | 16.5 |
| MEX3A | 3 | 0.672 | 7.7 | 8.27 |
